In PubChem BioAssay AID1259415 (National Center for Advancing Translational Sciences (NCATS), 2018):
The whole screen tested about 410,000 compounds, of which about 18,000 (4.4%) were called active. This list was built around the results that the source calls inconclusive (neither active nor inactive); the mix of calls is not that of the screen. Cut-off read from the data, not from the text of the source: active = activity change below about -60%; inconclusive = no clear call, values can overlap the other calls; inactive = above about -39%.

test: qHTS Assay for inhibitors of the human cytomegalovirus (HCMV); conditions: HFF cells, HCMV-luciferase reporter, 72 h; at 57.5 µM; active compounds read low
Outline: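 Steps: HFFs plated, 16 h 37C; compounds added; HCMV-luciferase added to MOI 1 PFU/cell; 72 h 37C; OneGlo reagent, 5 min room temperature; luminescence read, normalized to controls.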
% is set by controls: 0 for no effect and ±100 for the full control effect.

With `Cc1csc2ncnc(N3CCN(S(=O)(=O)c4cccc(C(F)(F)F)c4)CC3)c12` as the compound, how does the activity change, negative = inhibition read?
Its activity change, negative = inhibition is active: -92.3%.

For `C/C(CC(=O)Nc1ccc2c(c1)OCCO2)=N\NC(=O)COc1ccc(Cl)c(C)c1`, which activity change, negative = inhibition is on record?
Its activity change, negative = inhibition is inconclusive: -43.6%.

For `O=C(O)Cc1ccc(NC(=O)c2ccc(NC(=O)C3CC3)cc2)cc1`, which activity change, negative = inhibition is on record?
The activity change, negative = inhibition was inactive: -20.4%.

With `Cc1ccc2nc(CSc3nnc(-c4ccco4)n3-c3ccccc3)cc(=O)n2c1` as the compound, how does the activity change, negative = inhibition read?
The activity change, negative = inhibition was active: -105%.

Which activity change, negative = inhibition does the source give for `COCc1cc(CN(C)C(=O)c2oc3c(F)cccc3c2C)[nH]n1` here?
The activity change, negative = inhibition was inactive: -15.2%.

With `CCn1c(=NC(=O)c2cccc(N3C(=O)CCC3=O)c2)sc2c(C)ccc(OC)c21` as the compound, how does the activity change, negative = inhibition read?
Its activity change, negative = inhibition is inactive: -14.6%.

Which activity change, negative = inhibition does the source give for `CCOC(=O)c1cccc(NC(=O)C2CCCN(S(=O)(=O)c3c(C)nn(C)c3C)C2)c1` (stereo unspecified) here?
The activity change, negative = inhibition was inconclusive: -53.3%.

Which activity change, negative = inhibition does the source give for `CC(C)c1ccc(-n2cccc2/C=C2/C(=N)N3C=CSC3=NC2=O)cc1` here?
Its activity change, negative = inhibition is inconclusive: -53%.

For `COc1ccc(CCNC(=O)CCc2cn(Cc3ccc(C)cc3)c3ccccc23)c(OC)c1OC`, which activity change, negative = inhibition is on record?
Its activity change, negative = inhibition is inconclusive: -44.8%.

Which activity change, negative = inhibition does the source give for `O=C(c1ccccc1)c1ccc(COC(=O)c2cnccn2)cc1` here?
Its activity change, negative = inhibition is inactive: 6.56%.

Which activity change, negative = inhibition does the source give for `O=C(c1ccc2c(c1)OCO2)N(Cc1cccs1)C1(C(=O)NC2CCCCC2)CCCCC1` here?
Its activity change, negative = inhibition is inconclusive: -43.6%.

For `COc1ccccc1N1CCN(C(=O)c2cnc(N3CCOCC3)c3ccccc23)CC1`, which activity change, negative = inhibition is on record?
The activity change, negative = inhibition was inactive: -10.9%.

Which activity change, negative = inhibition does the source give for `CCOC(=O)Cc1c(C)nc2c(-c3cccc(Br)c3)c[nH]n2c1=O` here?
Its activity change, negative = inhibition is active: -93.1%.

With `C/C(=N\Nc1ccccc1C(=O)O)c1ccncc1` as the compound, how does the activity change, negative = inhibition read?
Its activity change, negative = inhibition is inactive: 34.7%.

For `CCOCCCNC(=O)CSc1nc2nc(C)c(Cc3ccccc3)c(C)n2n1`, which activity change, negative = inhibition is on record?
Its activity change, negative = inhibition is inactive: -24.3%.

Which activity change, negative = inhibition does the source give for `CC(Cc1ccco1)NC(=O)c1ccc(C(F)(F)F)cc1` (stereo unspecified) here?
Its activity change, negative = inhibition is inactive: 61.9%.

For `Cc1[nH]n(-c2ccccc2)c(=O)c1/C=N/Nc1nncc(-c2ccccc2)n1`, which activity change, negative = inhibition is on record?
Its activity change, negative = inhibition is active: -99.2%.

With `N=C1c2ccccc2CN1c1ncccn1` as the compound, how does the activity change, negative = inhibition read?
The activity change, negative = inhibition was inconclusive: -43.9%.

With `CCCCOC(=O)c1ccc(NC(=O)C(CCS(C)(=O)=O)NC(C)=O)cc1` (stereo unspecified) as the compound, how does the activity change, negative = inhibition read?
The activity change, negative = inhibition was inactive: 30.7%.

For `COc1ccc(-n2c(=O)c3c(c4cc(OC)ccc4n3C)n(CCC(C)C)c2=O)cc1`, which activity change, negative = inhibition is on record?
The activity change, negative = inhibition was inactive: -1.1%.

With `CN1C2CCC1CC(OC(c1ccccc1)c1ccc(Cl)cc1)C2` (stereo unspecified) as the compound, how does the activity change, negative = inhibition read?
The activity change, negative = inhibition was inconclusive: -51.9%.

For `Cc1ccc(NC(=O)CNc2cccc(S(=O)(=O)N3CCCCC3)c2)cc1F`, which activity change, negative = inhibition is on record?
Its activity change, negative = inhibition is inactive: -35.1%.

Which activity change, negative = inhibition does the source give for `CN(CC1COc2ccccc2O1)C(=O)c1cccc(S(=O)(=O)N2CCCC2)c1` (stereo unspecified) here?
Its activity change, negative = inhibition is inconclusive: -40.2%.

With `COc1cccc(/C=N/N2CCN(C3c4ccccc4-c4ccccc43)CC2)c1O` as the compound, how does the activity change, negative = inhibition read?
Its activity change, negative = inhibition is inactive: -6.01%.

Which activity change, negative = inhibition does the source give for `COc1ccc(/C=C2/CSC/C(=C/c3ccc(OC)c(OC)c3)C2=O)cc1OC` here?
Its activity change, negative = inhibition is active: -101%.

Which activity change, negative = inhibition does the source give for `Cc1nn(-c2ccc(F)cc2)c(C)c1NS(=O)(=O)c1ccc2ccccc2c1` here?
Its activity change, negative = inhibition is inconclusive: -53.1%.

Which activity change, negative = inhibition does the source give for `CCc1ccc(NC(=O)C(CC)Sc2nc3cc4c(cc3c(=O)n2Cc2ccco2)OCO4)cc1` (stereo unspecified) here?
The activity change, negative = inhibition was inconclusive: -51.1%.

With `COc1ccccc1-c1cc(NC=O)c2ncc(-c3cccc(C(C)=O)c3)n2c1` as the compound, how does the activity change, negative = inhibition read?
Its activity change, negative = inhibition is inactive: 58.7%.

Which activity change, negative = inhibition does the source give for `Cc1cc(C)c2nc(NC(=O)c3cc(C)on3)sc2c1` here?
The activity change, negative = inhibition was inconclusive: -45%.

With `O=C(Nc1cc(C(F)(F)F)ccc1Cl)c1cnn(-c2ccccc2)c1-n1cccc1` as the compound, how does the activity change, negative = inhibition read?
The activity change, negative = inhibition was inactive: -36.6%.

With `CN(/N=C/c1cccc(Br)c1)C1=NS(=O)(=O)c2ccccc21` as the compound, how does the activity change, negative = inhibition read?
Its activity change, negative = inhibition is inconclusive: -52.2%.

For `Clc1nc(CN2CCCCC2)nc2sc3c(c12)CCC3`, which activity change, negative = inhibition is on record?
Its activity change, negative = inhibition is inactive: 9.37%.

Which activity change, negative = inhibition does the source give for `S=C(NCCC1=CCCCC1)Nc1ccccc1` here?
The activity change, negative = inhibition was active: -67%.

Which activity change, negative = inhibition does the source give for `COc1ccc(-c2csc(N3CCSCC3)n2)cc1` here?
The activity change, negative = inhibition was inactive: -12.1%.

With `O=C(COC(=O)Cc1ccccc1)Nc1ncc(Cl)cc1Cl` as the compound, how does the activity change, negative = inhibition read?
Its activity change, negative = inhibition is inconclusive: -48.9%.

Which activity change, negative = inhibition does the source give for `CCOc1ccc(S(=O)(=O)N2CCC(C(=O)NCc3ccccc3CN3CCCC3)CC2)cc1` here?
Its activity change, negative = inhibition is inconclusive: -40.4%.

For `Cc1ccc(CNC(=O)c2ccc(Cl)c(S(=O)(=O)N3CCCCC3)c2)cc1`, which activity change, negative = inhibition is on record?
The activity change, negative = inhibition was inconclusive: -51.1%.

For `Cn1[nH]c(C(F)(F)F)c(C=NCc2ccc(Cl)cc2)c1=O`, which activity change, negative = inhibition is on record?
Its activity change, negative = inhibition is inconclusive: -46.4%.

For `O=C(Nc1ccccn1)c1onc2c1CCCC2`, which activity change, negative = inhibition is on record?
Its activity change, negative = inhibition is inconclusive: -44.3%.

With `Cc1ccc2c(c1)Oc1ccc(NC(=O)CCl)cc1C(=O)N2` as the compound, how does the activity change, negative = inhibition read?
The activity change, negative = inhibition was active: -88.5%.

For `COc1ccc(Br)cc1C(=O)Nc1ccc(Cc2ccncc2)cc1`, which activity change, negative = inhibition is on record?
The activity change, negative = inhibition was inactive: -24.1%.

Which activity change, negative = inhibition does the source give for `N=c1c(S(=O)(=O)c2ccc(Cl)cc2)cc2c(=O)n3ccccc3nc2n1C1CCCC1` here?
The activity change, negative = inhibition was inactive: 63.4%.

Which activity change, negative = inhibition does the source give for `Cc1cc(Nc2ccc3c(c2)OCCO3)c2cccc(C)c2n1` here?
Its activity change, negative = inhibition is inconclusive: -52%.

Which activity change, negative = inhibition does the source give for `CC(C)Cc1ccc(CN2CCCC(NC(=O)c3ccnn3C)C2)cc1` (stereo unspecified) here?
The activity change, negative = inhibition was active: -79.6%.

For `O=S(=O)(Cc1ccc(Cl)cc1Cl)c1ccc(Cl)cc1`, which activity change, negative = inhibition is on record?
Its activity change, negative = inhibition is inconclusive: -59.7%.

With `CC1=C(C(=O)Nc2ccccc2)C(c2cc(Br)ccc2F)n2ncc(C(=O)Nc3ccccc3)c2N1` (stereo unspecified) as the compound, how does the activity change, negative = inhibition read?
Its activity change, negative = inhibition is inconclusive: -54.3%.

Which activity change, negative = inhibition does the source give for `CC1(C)CC(=O)C(=Cc2cn(-c3ccccc3)nc2-c2ccc(Cl)cc2)C(=O)C1` here?
Its activity change, negative = inhibition is inactive: -4.87%.

For `Cc1ccc(C(=O)NCC(=O)N(C)Cc2ccccc2C)s1`, which activity change, negative = inhibition is on record?
The activity change, negative = inhibition was inactive: 26.1%.

For `Cc1ccc(S(=O)(=O)N2CCN(C(=O)c3c(-c4ccccc4)noc3C)CC2)cc1C`, which activity change, negative = inhibition is on record?
Its activity change, negative = inhibition is inconclusive: -45.3%.

Which activity change, negative = inhibition does the source give for `Cn1ccnc1C(=O)c1cc(SCC(=O)NCc2ccccc2)nc2ccccc12` here?
Its activity change, negative = inhibition is inconclusive: -47%.

Which activity change, negative = inhibition does the source give for `CCc1c(C)nc2ncnn2c1N1CCC(C(=O)Nc2cccc(C(C)=O)c2)CC1` here?
The activity change, negative = inhibition was inconclusive: -51%.

For `COc1ccc(-n2cnc3sc4c(c3c2=O)CCCC4)cc1`, which activity change, negative = inhibition is on record?
Its activity change, negative = inhibition is inconclusive: -55.4%.

Which activity change, negative = inhibition does the source give for `CCc1cccc(NC(=O)COC(=O)C2CCN(c3ccc(C(F)(F)F)cn3)CC2)c1` here?
Its activity change, negative = inhibition is inactive: -14.3%.

Which activity change, negative = inhibition does the source give for `Nc1nccc(/C=C/c2c(F)cccc2Cl)n1` here?
Its activity change, negative = inhibition is active: -67.6%.

With `O=C(Nc1ccccc1O)c1cccc(S(=O)(=O)N2CCOCC2)c1` as the compound, how does the activity change, negative = inhibition read?
The activity change, negative = inhibition was inactive: 5.4%.

With `CN(C)c1ccc(/C=N/N2C(=S)SC(C)(C)C2N(O)C(=O)Nc2ccc([N+](=O)[O-])cc2)cc1` (stereo unspecified) as the compound, how does the activity change, negative = inhibition read?
Its activity change, negative = inhibition is inactive: 52.1%.
